The exact form of at least one protein or probe is not confirmed. Tags and fusion partners may be left off the protein sequences shown.
Experiments:
[1] = molecular target: T1, Human neutrophil elastase (HNE) (Homo sapiens) (UniProt P08246); test: flow cytometry; conditions: purified native protein, single-stranded DNA, letters built from the parent sequence and the stated change, variant of PARENT (45-nt HNE DNA ligand)
T1 sequence (looked up, limits assumed): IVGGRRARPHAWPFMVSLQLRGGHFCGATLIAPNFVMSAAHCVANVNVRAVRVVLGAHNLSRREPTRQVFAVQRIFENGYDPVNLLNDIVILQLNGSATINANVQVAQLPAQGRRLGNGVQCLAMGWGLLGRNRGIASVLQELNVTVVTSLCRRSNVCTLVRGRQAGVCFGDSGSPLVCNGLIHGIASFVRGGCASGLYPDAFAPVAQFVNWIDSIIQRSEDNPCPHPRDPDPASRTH

[2] = molecular target: T1, Human neutrophil elastase (HNE) (Homo sapiens); test: filter binding; conditions: 150 mM NaCl, 100 mM Tris-HCl pH 7.0, 2 mM MgCl2, 6 mM KCl, 0.02% HSA, 37 C, purified native protein, single-stranded DNA, letters built from the parent sequence and the stated change, variant of PARENT (45-nt HNE DNA ligand)
[3] = molecular target: T1, Human neutrophil elastase (HNE) (Homo sapiens); test: pull-down; conditions: 5' 32P-labeled DNA, HNE on beads, scintillation counting, 37 C, purified native protein, label: fluorescein, single-stranded DNA, letters built from the parent sequence and the stated change, variant of PARENT (45-nt HNE DNA ligand)
[4] = molecular target: T1, Human neutrophil elastase (HNE) (Homo sapiens); test: binding assay; conditions: CITED from US 5,472,841; printed as 17 nm; purified native protein; single-stranded DNA
[5] = head-to-tail dimer linked by ethylene glycol linkers (L) with two fluoresceins (LFLFL) [LFLFL (ethylene glycol linkers L and two fluoresceins F; n46-n50, left out) between T45 and T46], label: fluorescein x2
[6] = fluorescein at 5' end (n1) [5' fluorescein (n1, left out) attached before T1], label: fluorescein
[7] = two hexaethylene glycol spacers then fluorescein near 3' end [two hexaethylene glycol spacers + fluorescein (n46-n48, left out) between T45 and T46], label: fluorescein
[8] = fluorescein as penultimate 3' residue [fluorescein (n46, left out) between T45 and T46], label: fluorescein

Which results are given for “TAGCGATACTGCGTGGGTTGGGGCGGGTAGGGCCAGCAGTCTCGTTAGCGATACTGCGTGGGTTGGGGCGGGTAGGGCCAGCAGTCTCGT [DNA-DIMER-HT]”?
Kd [1, 5]: 15 nM; Kd [2, 5]: 0.5 nM

For “TAGCGATACTGCGTGGGTTGGGGCGGGTAGGGCCAGCAGTCTCGT [DNA-5F]”, which Kd [1, 6] is on record?
Its Kd is 154 nM.

And the Kd [2, 6]?
The Kd was 13 nM.

How did the Kd [1, 7] turn out when “TAGCGATACTGCGTGGGTTGGGGCGGGTAGGGCCAGCAGTCTCGTT [DNA-LNK-3F]” was run?
The Kd was 90 nM.

What about the Kd ([3]; two hexaethylene glycol spacers then fluorescein near 3' end [two hexaethylene glycol spacers + fluorescein (n46-n48, left out) between T45 and T46]) of the same sequence?
The Kd was 300 nM.

And the Kd [2, 7]?
Its Kd is 17.5 nM.

“TAGCGATACTGCGTGGGTTGGGGCGGGTAGGGCCAGCAGTCTCGTT [PARENT (45-nt HNE DNA ligand)]” was tested. Which Kd [4] did it give?
The Kd was 17 nM.

How did the Kd [1, 8] turn out when “TAGCGATACTGCGTGGGTTGGGGCGGGTAGGGCCAGCAGTCTCGTT [DNA-3F]” was run?
The Kd was 120 nM.

What about the Kd ([3]; fluorescein as penultimate 3' residue [fluorescein (n46, left out) between T45 and T46]) of the same sequence?
Its Kd is 140 nM.

And the Kd [2, 8]?
The Kd was 6.6 nM.

Source: patent US5853984, “Use of nucleic acid ligands in flow cytometry” (NeXstar Pharmaceuticals, Inc.)
